In article PMC8718961, “The CbbQO-type rubisco activases encoded in carboxysome gene clusters can activate carboxysomal form IA rubiscos” (The Journal of Biological Chemistry, 2021):
No constants are given. Whether binding was seen depends on the method and setting. In cells and extracts the contact can be indirect. A result given as binding can be weak or reduced; the word gives no strength.

By UniProt entry, the sequences of proteins in these tests, tags left out. Where a name states a change or a piece, a line headed by the entry shows the natural chain unless it says otherwise.
UniProt D0KZ75: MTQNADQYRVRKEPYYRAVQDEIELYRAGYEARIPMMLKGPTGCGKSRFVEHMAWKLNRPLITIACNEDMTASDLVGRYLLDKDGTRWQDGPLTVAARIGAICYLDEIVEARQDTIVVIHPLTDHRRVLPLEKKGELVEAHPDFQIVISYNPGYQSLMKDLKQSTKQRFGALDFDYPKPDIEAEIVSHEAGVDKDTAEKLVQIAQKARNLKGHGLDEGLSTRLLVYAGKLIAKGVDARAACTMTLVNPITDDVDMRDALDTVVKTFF
UniProt B7JB17: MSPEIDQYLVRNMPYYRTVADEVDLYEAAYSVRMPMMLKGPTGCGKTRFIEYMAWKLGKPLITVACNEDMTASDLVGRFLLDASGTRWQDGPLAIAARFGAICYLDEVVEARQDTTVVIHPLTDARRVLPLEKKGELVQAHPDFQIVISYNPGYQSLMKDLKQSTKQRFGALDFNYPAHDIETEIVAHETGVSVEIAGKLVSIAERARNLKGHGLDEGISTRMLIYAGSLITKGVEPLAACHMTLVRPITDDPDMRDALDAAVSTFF
UniProt D0KZ80: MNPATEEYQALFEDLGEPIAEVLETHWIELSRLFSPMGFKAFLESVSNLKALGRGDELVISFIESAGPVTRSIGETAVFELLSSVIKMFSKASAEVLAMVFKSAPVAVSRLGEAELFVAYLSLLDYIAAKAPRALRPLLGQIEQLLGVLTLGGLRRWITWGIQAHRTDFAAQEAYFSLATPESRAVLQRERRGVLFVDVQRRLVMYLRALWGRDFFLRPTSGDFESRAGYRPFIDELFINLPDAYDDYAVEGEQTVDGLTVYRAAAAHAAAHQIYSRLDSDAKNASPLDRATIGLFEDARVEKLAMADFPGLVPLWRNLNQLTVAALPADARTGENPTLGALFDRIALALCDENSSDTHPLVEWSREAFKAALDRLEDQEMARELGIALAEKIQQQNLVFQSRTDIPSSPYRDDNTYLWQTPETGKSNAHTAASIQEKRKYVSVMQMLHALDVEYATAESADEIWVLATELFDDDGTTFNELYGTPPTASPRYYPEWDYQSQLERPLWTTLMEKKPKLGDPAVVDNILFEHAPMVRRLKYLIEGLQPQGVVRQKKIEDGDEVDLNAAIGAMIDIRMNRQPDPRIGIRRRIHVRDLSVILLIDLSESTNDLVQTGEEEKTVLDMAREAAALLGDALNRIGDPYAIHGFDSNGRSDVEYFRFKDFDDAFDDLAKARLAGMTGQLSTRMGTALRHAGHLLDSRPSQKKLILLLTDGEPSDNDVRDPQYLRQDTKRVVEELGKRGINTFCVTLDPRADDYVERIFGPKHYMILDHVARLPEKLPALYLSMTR
UniProt B7JB16: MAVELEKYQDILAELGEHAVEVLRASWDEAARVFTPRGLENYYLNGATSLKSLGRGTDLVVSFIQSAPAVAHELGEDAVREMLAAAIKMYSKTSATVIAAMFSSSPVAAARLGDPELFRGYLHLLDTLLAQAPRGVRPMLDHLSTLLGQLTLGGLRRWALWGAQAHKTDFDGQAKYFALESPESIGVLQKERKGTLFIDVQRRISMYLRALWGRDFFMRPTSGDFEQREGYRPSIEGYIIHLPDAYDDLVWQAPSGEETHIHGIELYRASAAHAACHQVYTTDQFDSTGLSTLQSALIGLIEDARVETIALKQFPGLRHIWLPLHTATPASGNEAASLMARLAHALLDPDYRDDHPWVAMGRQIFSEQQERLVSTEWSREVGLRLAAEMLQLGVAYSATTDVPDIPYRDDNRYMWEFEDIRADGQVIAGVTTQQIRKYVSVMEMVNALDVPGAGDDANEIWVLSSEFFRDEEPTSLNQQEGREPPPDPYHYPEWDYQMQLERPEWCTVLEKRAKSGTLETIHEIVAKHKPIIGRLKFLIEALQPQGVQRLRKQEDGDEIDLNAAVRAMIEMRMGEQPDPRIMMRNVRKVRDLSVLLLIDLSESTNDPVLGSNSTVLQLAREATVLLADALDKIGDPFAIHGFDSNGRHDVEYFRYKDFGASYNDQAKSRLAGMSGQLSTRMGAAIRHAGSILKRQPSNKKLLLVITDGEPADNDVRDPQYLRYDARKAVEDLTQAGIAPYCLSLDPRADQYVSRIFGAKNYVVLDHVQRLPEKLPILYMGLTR

Tests used:
[1] = biological target: H. neapolitanus CbbQ (carboxysomal gene cluster) (Halothiobacillus neapolitanus ATCC23641) (UniProt D0KZ75); test: co-purification; CbbQ and CbbO co-produced in E. coli BL21(DE3); the complex purified by affinity chromatography, ion exchange chromatography and size-exclusion chromatography; SDS-PAGE of the purified complexes
[2] = biological target: A. ferrooxidans CbbQ3 (CbbQ of the carboxysomal form IA^C gene cluster) (Acidithiobacillus ferrooxidans ATCC23270) (UniProt B7JB17); test: co-purification; CbbQ and CbbO co-produced in E. coli BL21(DE3); the complex purified by affinity chromatography and size-exclusion chromatography (ion exchange step omitted); SDS-PAGE of the purified complex

Row | Substance | binding [1] | binding [2]
1 | H. neapolitanus CbbO (carboxysomal gene cluster) (from UniProt D0KZ80) | binds | –
2 | A. ferrooxidans CbbO3 (CbbO of the carboxysomal form IA^C gene cluster) (from UniProt B7JB16) | – | binds
